In US20180195056A1:
Results are given in words; binding and its absence hold for the method and conditions named. In cells and extracts the contact can be indirect. Some results given as binding are weak or reduced against the parent protein; the word gives no strength.

The chains behind the UniProt entries cited, without tags or fusion partners. Where a name states a change or a piece, a line headed by the entry shows the natural chain unless it says otherwise.
UniProt P60519: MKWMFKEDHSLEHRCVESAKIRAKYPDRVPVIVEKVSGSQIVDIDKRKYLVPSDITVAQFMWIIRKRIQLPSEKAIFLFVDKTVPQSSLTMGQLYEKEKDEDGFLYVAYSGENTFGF
UniProt Q640G7: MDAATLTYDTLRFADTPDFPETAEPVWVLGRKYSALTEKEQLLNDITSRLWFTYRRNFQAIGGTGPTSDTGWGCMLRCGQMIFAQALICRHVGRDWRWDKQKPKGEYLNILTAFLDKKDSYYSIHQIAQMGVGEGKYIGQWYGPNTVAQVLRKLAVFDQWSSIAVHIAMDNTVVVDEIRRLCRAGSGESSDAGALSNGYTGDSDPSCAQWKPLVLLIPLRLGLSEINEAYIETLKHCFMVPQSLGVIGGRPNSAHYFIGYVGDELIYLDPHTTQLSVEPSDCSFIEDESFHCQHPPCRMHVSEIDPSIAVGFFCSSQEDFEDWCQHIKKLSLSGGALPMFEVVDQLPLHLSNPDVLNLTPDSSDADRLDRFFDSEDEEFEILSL

Tests used:
[1] = biological target: His14-Spacer-xlGATE16-GFP (Xenopus laevis) (UniProt P60519); assay: discussion of the pull-down and dilution experiments of FIG. 6
[2] = biological target: His14-Spacer-xlGATE16-GFP (Xenopus laevis) (UniProt P60519); assay: competitive pull-down, equimolar protease mixture (10 µM each) on immobilized His14-Spacer-xlGATE16-GFP, SDS-PAGE
[3] = biological target: His14-Spacer-xlGATE16-GFP (Xenopus laevis) (UniProt P60519); assay: competitive pull-down on immobilized xlGATE16, SDS-PAGE (FIG. 6B)

Substance	binding [1]	binding [2]	binding [3]
full-length xlAtg4B (Xenopus laevis Atg4B, residues 1-384) (from UniProt Q640G7 1-384) (enzyme)	binds	binds	binds
xlAtg4B^14-384 (from UniProt Q640G7 14-384) (enzyme)		binds	binds
xlAtg4B^25-384 (from UniProt Q640G7 25-384) (enzyme)		binds	binds
